These results are taken from publication PMC11237139.

By UniProt entry, the sequences of proteins in these tests, tags left out. Residues count along the entry.
UniProt P36898, residues 14-502: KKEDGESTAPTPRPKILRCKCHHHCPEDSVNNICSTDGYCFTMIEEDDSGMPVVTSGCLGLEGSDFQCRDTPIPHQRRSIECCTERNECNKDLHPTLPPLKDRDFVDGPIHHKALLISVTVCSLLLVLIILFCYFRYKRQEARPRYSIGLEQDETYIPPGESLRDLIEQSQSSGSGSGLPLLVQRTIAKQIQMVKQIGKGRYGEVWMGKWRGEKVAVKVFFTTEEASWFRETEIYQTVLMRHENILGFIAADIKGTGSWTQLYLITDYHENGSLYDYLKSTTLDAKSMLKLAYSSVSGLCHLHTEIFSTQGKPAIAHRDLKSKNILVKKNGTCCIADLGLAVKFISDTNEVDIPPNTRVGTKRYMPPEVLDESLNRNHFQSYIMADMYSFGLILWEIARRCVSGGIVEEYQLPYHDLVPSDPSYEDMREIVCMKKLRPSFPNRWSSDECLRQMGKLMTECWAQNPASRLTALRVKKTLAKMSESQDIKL

Results are given in words; binding and its absence hold for the method and conditions named. Binding seen in cells or lysates may run through a third protein. Some entries that bind do so weakly or less than the wild type.

This assay addresses BMPR1B, endogenous in mouse brain (V-SVZ) (mouse (endogenous in mouse brain sections)) (UniProt P36898). The experiment in a line: proximity ligation; Duolink in situ PLA on brain sections of 15-week-old Lrig1 WT and KO mice with anti-LRIG1 and anti-BMPR-1B antibodies; KO sections and WT sections without primary antibodies as controls.

B1: LRIG1, endogenous in mouse brain (V-SVZ) (protein, UniProt P70193 35-1091)
chain: AQAGPRAPCAAACTCAGDSLDCSGRGLATLPRDLPSWTRSLNLSYNRLSEIDSAAFEDLTNLQEVYLNSNELTAIPSLGAASIGVVSLFLQHNKILSVDGSQLKSYLSLEVLDLSSNNITEIRSSCFPNGLRIRELNLASNRISILESGAFDGLSRSLLTLRLSKNRITQLPVKAFKLPRLTQLDLNRNRIRLIEGLTFQGLDSLEVLRLQRNNISRLTDGAFWGLSKMHVLHLEYNSLVEVNSGSLYGLTALHQLHLSNNSISRIQRDGWSFCQKLHELILSFNNLTRLDEESLAELSSLSILRLSHNAISHIAEGAFKGLKSLRVLDLDHNEISGTIEDTSGAFTGLDNLSKLTLFGNKIKSVAKRAFSGLESLEHLNLGENAIRSVQFDAFAKMKNLKELYISSESFLCDCQLKWLPPWLMGRMLQAFVTATCAHPESLKGQSIFSVLPDSFVCDDFPKPQIITQPETTMAVVGKDIRFTCSAASSSSSPMTFAWKKDNEVLANADMENFAHVRAQDGEVMEYTTILHLRHVTFGHEGRYQCIITNHFGSTYSHKARLTVNVLPSFTKIPHDIAIRTGTTARLECAATGHPNPQIAWQKDGGTDFPAARERRMHVMPDDDVFFITDVKIDDMGVYSCTAQNSAGSVSANATLTVLETPSLAVPLEDRVVTVGETVAFQCKATGSPTPRITWLKGGRPLSLTERHHFTPGNQLLVVQNVMIDDAGRYTCEMSNPLGTERAHSQLSILPTPGCRKDGTTVGIFTIAVVCSIVLTSLVWVCIIYQTRKKSEEYSVTNTDETIVPPDVPSYLSSQGTLSDRQETVVRTEGGHQANGHIESNGVCLRDPSLFPEVDIHSTTCRQPKLCVGYTREPWKVTEKADRTAAPHTTAHSGSAVCSDCSTDTAYHPQPVPRDSGQPGTASSQELRQHDREYSPHHPYSGTADGSHTLSGGSLYPSNHDRILPSLKNKAASADGNGDSSWTLAKLHEADCIDLKPSPTLASGSPELMEDAISTEAQHLLVSNGHLPKACDSSPESVPLKGQITGKRRGPLLLAPRS
Consider B1, for which the binding entry was “binds”.
